# Results from the supplement of paper PMC12823440, “Inhibitors supercharge kinase turnover through native proteolytic circuits” (Nature, 2025).
# Protein sequences, listed by entry. Tags and fused reporters are not part of them. Lines headed by an entry give the natural chain unless they say otherwise; changes in a name come on top.
# UniProt Q9UQM7, whole entry: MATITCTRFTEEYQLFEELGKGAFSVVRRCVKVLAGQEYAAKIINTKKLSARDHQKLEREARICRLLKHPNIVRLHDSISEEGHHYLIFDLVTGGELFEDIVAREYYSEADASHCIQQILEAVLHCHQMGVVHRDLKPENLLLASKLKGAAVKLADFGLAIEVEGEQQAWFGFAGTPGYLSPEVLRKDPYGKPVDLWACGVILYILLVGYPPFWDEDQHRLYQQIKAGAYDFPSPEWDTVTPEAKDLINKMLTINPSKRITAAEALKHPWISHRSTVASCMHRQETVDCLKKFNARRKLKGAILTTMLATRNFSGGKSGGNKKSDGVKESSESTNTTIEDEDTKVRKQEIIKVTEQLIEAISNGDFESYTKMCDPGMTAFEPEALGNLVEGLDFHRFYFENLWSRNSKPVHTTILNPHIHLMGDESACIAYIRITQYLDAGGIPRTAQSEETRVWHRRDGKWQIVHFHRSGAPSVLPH
# UniProt Q13555: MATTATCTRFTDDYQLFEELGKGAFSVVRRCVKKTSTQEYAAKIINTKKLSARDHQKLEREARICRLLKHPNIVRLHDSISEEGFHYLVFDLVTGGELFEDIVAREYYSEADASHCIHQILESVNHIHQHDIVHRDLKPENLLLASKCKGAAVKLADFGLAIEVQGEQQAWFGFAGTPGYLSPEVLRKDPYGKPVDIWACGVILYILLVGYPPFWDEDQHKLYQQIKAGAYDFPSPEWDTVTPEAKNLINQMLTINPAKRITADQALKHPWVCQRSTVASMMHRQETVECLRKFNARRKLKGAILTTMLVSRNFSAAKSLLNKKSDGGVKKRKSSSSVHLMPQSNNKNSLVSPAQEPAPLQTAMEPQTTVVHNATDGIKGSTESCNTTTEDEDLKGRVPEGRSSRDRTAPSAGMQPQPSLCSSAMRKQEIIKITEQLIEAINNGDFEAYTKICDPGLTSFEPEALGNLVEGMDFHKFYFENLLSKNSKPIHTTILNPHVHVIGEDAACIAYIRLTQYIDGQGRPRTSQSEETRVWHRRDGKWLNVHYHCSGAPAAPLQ
# UniProt Q15131: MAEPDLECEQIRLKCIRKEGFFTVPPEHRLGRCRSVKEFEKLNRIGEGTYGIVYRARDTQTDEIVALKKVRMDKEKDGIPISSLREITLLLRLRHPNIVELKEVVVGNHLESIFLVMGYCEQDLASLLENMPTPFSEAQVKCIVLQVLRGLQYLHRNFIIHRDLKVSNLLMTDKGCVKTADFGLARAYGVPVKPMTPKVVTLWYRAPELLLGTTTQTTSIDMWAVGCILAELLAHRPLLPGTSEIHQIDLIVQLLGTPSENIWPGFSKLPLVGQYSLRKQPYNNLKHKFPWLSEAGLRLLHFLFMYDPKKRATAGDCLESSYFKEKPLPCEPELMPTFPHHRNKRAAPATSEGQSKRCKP
# UniProt Q00526: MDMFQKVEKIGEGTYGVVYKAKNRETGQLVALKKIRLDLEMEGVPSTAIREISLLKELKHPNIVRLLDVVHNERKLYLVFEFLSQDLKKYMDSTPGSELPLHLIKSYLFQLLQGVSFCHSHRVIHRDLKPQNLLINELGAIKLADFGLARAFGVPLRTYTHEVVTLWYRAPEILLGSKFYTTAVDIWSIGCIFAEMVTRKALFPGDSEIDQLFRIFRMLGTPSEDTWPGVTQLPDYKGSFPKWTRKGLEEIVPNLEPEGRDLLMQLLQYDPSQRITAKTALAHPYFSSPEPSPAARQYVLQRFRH
# UniProt Q00535, whole entry, looked up: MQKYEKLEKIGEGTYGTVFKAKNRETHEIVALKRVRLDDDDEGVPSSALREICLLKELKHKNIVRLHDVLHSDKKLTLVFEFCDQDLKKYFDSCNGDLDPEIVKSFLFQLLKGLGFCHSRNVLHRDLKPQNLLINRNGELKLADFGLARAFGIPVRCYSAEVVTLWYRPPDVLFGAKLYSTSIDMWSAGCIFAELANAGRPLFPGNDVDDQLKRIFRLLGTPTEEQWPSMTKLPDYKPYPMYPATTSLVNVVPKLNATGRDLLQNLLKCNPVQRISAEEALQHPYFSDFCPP
# UniProt Q00534, whole entry: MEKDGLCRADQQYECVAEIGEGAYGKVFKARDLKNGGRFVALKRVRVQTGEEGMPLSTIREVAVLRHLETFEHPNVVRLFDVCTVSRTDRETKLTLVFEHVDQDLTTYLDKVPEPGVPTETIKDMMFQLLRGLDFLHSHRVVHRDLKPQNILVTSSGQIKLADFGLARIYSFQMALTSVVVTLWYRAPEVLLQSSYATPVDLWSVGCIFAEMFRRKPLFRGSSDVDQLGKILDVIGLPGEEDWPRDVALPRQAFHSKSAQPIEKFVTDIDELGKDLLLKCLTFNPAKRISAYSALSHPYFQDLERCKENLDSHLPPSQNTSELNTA
# UniProt O96017, whole entry: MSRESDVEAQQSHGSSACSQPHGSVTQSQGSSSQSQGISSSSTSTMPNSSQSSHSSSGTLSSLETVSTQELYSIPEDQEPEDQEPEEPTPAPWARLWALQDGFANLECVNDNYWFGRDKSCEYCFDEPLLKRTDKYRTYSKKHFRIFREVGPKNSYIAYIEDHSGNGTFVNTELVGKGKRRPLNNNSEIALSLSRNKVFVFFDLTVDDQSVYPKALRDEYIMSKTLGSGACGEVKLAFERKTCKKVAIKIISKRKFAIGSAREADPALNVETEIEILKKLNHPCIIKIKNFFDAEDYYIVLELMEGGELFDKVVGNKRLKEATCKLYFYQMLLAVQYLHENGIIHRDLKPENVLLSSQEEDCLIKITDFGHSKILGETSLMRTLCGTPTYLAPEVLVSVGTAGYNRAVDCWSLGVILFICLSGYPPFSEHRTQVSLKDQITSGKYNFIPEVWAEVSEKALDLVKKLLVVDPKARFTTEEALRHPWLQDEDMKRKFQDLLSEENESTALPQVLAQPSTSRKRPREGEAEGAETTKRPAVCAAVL
# UniProt P41240: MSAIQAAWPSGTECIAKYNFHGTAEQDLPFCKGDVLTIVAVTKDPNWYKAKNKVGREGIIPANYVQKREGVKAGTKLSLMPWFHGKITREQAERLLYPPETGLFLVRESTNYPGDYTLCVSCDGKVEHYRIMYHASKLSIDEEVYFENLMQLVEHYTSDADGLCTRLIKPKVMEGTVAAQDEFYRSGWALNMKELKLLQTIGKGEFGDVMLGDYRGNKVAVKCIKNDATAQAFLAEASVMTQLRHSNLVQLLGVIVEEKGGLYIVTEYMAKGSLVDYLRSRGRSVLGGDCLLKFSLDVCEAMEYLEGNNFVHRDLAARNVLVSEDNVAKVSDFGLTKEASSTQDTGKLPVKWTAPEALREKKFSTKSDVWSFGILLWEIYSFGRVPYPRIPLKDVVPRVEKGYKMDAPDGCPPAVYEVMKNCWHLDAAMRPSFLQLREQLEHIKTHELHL
# UniProt P48729: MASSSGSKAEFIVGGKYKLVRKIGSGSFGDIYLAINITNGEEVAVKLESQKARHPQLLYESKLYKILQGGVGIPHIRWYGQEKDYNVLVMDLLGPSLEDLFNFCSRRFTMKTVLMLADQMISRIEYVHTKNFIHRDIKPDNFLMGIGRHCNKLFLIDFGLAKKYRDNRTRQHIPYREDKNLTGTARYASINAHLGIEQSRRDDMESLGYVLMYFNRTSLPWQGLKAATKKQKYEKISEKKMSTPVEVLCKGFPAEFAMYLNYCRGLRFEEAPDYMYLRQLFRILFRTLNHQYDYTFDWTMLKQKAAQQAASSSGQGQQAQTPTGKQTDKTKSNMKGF
# UniProt P48730: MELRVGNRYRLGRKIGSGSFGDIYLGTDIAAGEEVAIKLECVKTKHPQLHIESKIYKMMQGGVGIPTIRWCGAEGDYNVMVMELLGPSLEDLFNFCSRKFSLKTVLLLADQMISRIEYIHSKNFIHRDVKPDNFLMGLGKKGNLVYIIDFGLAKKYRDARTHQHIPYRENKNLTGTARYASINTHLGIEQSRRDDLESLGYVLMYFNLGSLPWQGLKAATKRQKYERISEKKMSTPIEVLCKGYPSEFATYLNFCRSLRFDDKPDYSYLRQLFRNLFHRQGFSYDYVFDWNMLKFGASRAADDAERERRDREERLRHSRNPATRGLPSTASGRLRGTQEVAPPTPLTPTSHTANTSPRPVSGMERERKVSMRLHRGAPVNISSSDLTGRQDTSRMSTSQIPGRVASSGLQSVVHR
# UniProt Q08345: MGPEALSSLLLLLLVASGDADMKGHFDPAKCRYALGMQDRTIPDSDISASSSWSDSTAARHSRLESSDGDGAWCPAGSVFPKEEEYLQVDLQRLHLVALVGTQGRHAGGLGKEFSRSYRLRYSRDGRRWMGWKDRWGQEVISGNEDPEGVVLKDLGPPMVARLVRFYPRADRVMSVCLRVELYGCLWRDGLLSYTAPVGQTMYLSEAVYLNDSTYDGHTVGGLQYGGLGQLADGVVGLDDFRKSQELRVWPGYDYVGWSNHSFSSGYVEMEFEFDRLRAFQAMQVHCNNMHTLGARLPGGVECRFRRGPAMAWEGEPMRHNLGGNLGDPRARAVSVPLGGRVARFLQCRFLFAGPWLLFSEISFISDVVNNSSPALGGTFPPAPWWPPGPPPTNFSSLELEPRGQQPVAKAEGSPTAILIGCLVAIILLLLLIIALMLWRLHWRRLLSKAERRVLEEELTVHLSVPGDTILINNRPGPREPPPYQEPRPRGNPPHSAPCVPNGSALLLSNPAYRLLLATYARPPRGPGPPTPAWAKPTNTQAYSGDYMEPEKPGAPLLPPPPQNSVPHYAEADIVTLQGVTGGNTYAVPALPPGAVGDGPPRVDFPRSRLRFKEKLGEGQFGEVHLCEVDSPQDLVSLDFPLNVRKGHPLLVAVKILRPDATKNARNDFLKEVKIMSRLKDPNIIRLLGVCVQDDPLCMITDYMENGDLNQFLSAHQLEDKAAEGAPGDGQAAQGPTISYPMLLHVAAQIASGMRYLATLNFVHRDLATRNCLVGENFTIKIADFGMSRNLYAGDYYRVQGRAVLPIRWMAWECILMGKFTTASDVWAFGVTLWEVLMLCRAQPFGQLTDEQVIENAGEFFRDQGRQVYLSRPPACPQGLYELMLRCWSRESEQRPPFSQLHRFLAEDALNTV
# UniProt Q9Y463, whole entry, looked up: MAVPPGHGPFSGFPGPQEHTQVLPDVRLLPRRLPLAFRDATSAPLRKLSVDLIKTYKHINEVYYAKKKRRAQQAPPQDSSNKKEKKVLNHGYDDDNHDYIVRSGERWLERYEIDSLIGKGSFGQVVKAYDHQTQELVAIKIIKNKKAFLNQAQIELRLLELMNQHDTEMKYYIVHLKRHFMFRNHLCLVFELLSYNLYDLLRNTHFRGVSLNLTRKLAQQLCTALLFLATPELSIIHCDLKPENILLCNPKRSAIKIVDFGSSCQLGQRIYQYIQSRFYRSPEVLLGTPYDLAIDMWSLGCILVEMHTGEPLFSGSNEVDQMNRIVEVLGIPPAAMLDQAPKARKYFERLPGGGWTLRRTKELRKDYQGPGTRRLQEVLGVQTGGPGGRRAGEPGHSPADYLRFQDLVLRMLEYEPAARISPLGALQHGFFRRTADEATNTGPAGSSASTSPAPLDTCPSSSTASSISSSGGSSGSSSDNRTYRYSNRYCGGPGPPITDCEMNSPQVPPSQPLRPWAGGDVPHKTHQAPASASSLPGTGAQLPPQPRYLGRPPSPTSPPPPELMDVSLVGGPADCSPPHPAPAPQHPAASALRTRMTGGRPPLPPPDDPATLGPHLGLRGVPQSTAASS
# UniProt Q92630: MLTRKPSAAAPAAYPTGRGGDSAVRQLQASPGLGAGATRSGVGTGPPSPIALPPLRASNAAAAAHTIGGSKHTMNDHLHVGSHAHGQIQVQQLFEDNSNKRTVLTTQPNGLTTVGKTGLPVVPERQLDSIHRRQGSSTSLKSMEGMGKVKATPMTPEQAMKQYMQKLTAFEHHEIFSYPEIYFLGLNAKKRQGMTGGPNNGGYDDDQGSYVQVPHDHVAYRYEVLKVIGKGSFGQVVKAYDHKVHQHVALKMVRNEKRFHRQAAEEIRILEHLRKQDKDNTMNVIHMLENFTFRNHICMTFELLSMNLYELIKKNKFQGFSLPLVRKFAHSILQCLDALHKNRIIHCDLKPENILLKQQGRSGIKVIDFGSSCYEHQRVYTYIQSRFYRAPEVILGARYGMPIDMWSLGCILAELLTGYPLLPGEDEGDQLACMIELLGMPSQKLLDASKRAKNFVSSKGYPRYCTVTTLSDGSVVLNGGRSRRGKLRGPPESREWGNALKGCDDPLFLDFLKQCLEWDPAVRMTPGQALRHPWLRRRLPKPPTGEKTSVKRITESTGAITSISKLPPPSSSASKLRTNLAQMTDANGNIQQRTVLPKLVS
# Where a name gives a salt, the structure may show the parent alone. Some of the results follow. The calls rarely recur for the same compound in another form.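 Kinases, fused to nanoluciferase, were expressed in K562 cells; luminescence was measured every 4 h from 2 to 18 h as percent of control (DMSO = 100%, positive control = 0%). A time point is decreased if signal falls significantly (2 sigma). Hits were called by the authors by a rule that is not shown; the count of time points alone does not decide it.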
# Columns and labels:
# Assay in all cases: number of time points (of 5) at which kinase-Nluc abundance scored as decreased, DMSO-normalised (count); higher = more persistent destabilization
# Settings in all cases: K562; 2-18 h
# CAMK2A = CAMK2A (UniProt Q9UQM7)
# CAMK2G = CAMK2G (UniProt Q13555)
# CDK10 = CDK10 (UniProt Q15131)
# CDK2 = CDK2 (UniProt P24941)
# CDK3 = CDK3 (UniProt Q00526)
# CDK5 = CDK5 (UniProt Q00535)
# CDK6 = CDK6 (UniProt Q00534)
# CHEK2 = CHEK2 (UniProt O96017)
# CSF1R = CSF1R (UniProt P07333)
# CSK = CSK (UniProt P41240)
# CSNK1A1 = CSNK1A1 (UniProt P48729)
# CSNK1D = CSNK1D (UniProt P48730)
# DDR1 = DDR1 (UniProt Q08345)
# DYRK1B = DYRK1B (UniProt Q9Y463)
# DYRK2 = DYRK2 (UniProt Q92630)
# EGFR = EGFR (UniProt P00533)
# EGFR_G719S = EGFR_G719S (UniProt P00533)
# EGFR_G719S_T790M = EGFR_G719S_T790M (UniProt P00533)
# EGFR_L718V = EGFR_L718V (UniProt P00533)
# EGFR_L858R = EGFR_L858R (UniProt P00533)
SMILES,number of time points (CAMK2A),number of time points (CAMK2G),number of time points (CDK10),number of time points (CDK2),number of time points (CDK3),number of time points (CDK5),number of time points (CDK6),number of time points (CHEK2),number of time points (CSF1R),number of time points (CSK),number of time points (CSNK1A1),number of time points (CSNK1D),number of time points (DDR1),number of time points (DYRK1B),number of time points (DYRK2),number of time points (EGFR),number of time points (EGFR_G719S),number of time points (EGFR_G719S_T790M),number of time points (EGFR_L718V),number of time points (EGFR_L858R)
COc1cc(-c2oc3cc(O)cc(O)c3c(=O)c2O)ccc1O [Isorhamnetin] (10 µM),0,0,0,0,0,0,0,0,0,0,0,0,0,0,0,0,0,0,0,0
C=CC(=O)N1CCC[C@@H](n2nc(-c3ccc(Oc4ccccc4)cc3)c3c(N)n[nH]c(=O)c32)C1 [BTK inhibitor 17] (10 µM),0,0,0,0,0,0,0,0,0,0,0,0,0,0,2,0,0,0,0,0
CO[C@H]1C[C@@H]2CC[C@@H](C)[C@@](O)(O2)C(=O)C(=O)N2CCCC[C@H]2C(=O)O[C@H]([C@H](C)C[C@@H]2CC[C@@H](OC(=O)C(C)(CO)CO)[C@H](OC)C2)CC(=O)[C@H](C)/C=C(\C)[C@@H](O)[C@@H](OC)C(=O)[C@H](C)C[C@H](C)/C=C/C=C/C=C/1C [Temsirolimus] (2.5 µM),0,0,0,0,0,0,0,0,0,0,0,0,0,0,0,0,0,0,0,0
O=C1NC(=O)/C(=C\c2c[nH]c(=O)c(-c3ccc(N4CCNCC4)nc3)c2)S1 [Protein kinase inhibitors 1 hydrochloride] (10 µM),0,0,0,0,0,0,0,0,0,0,0,0,0,0,0,0,0,0,0,0
NC(=O)c1ccc(N(C(N)=O)c2c(F)cccc2F)nc1-c1ccc(F)cc1F (10 µM),0,0,0,0,0,0,0,0,0,0,0,0,0,0,0,0,0,0,0,0
CC1=C(C(=O)Nc2cc3cn[nH]c3cc2F)C(c2ccc(C(F)(F)F)cc2)CC(=O)N1 (stereo not given) (10 µM),0,0,0,0,0,0,0,0,0,0,0,0,0,0,0,0,0,0,0,0
O=c1[nH]ccc2nc(-c3ccc(CN4CCC(c5nc(-c6ccccn6)n[nH]5)CC4)cc3)c(-c3ccccc3)cc12 (10 µM),0,0,0,0,0,0,0,0,0,0,0,0,0,0,0,0,0,0,0,0
O=C(NCCO)c1cc(C(=O)NCCO)cc(C(=O)NCCO)c1 (10 µM),0,0,0,0,0,0,0,0,0,0,0,0,0,0,0,0,0,0,0,0
Nc1ncc(-c2ccnc(Nc3ccncc3)n2)c(CC2CC2)n1 (10 µM),0,0,0,0,0,0,0,0,0,0,0,0,1,0,0,0,0,0,0,0
O=Nc1c(-c2c(O)[nH]c3cc(Br)ccc23)[nH]c2ccccc12 [GSK 3 Inhibitor IX] (2.5 µM),0,0,0,0,0,0,0,0,0,0,0,0,0,0,0,0,0,0,0,0
COc1cc(-c2cc(OP(=O)(O)O)cc(-c3cc(OC)c(OC)c(OC)c3)c2)cc(OC)c1OC [Stafia-1] (10 µM),0,0,0,0,0,0,0,0,0,0,0,0,0,0,0,0,0,0,0,0
COc1ccc2c3n(c(=NC(=O)c4cccnc4)nc2c1OC)CCN3 (2 µM),0,0,0,0,0,0,0,0,0,0,0,0,0,0,0,0,0,0,0,0
Cn1ncc(NC(=O)c2nc(-c3c(F)cccc3F)sc2N)c1N1CC[C@@H](N)[C@H](F)CC1 (10 µM),0,0,0,0,0,0,0,0,0,0,0,0,0,0,0,0,0,0,0,0
C=CC(=O)Nc1cc(Nc2nccc(-c3cn(C)c4ccccc34)n2)c(OC)cc1OCCN(C)C [Rezivertinib] (2.5 µM),0,0,0,0,0,0,5,0,0,0,0,0,0,0,0,0,0,0,0,0
Nc1nc(NCCNc2ncc(-n3ccnc3)c(-c3ccc(Cl)cc3Cl)n2)ccc1[N+](=O)[O-] (2.5 µM),0,3,0,0,0,0,0,2,0,0,0,1,0,0,0,0,5,0,0,0
O=C1Nc2ccc(CN3C(=O)CSC3=O)cc2/C1=C/c1cc(CN2CCOCC2)c[nH]1 (10 µM),0,0,0,0,0,0,0,0,0,0,0,0,0,0,0,0,0,0,0,0

# Pulled one by one from above, 2 records:
SMILES,number of time points (CAMK2A),number of time points (CAMK2G),number of time points (CDK10),number of time points (CDK2),number of time points (CDK3),number of time points (CDK5),number of time points (CDK6),number of time points (CHEK2),number of time points (CSF1R),number of time points (CSK),number of time points (CSNK1A1),number of time points (CSNK1D),number of time points (DDR1),number of time points (DYRK1B),number of time points (DYRK2),number of time points (EGFR),number of time points (EGFR_G719S),number of time points (EGFR_G719S_T790M),number of time points (EGFR_L718V),number of time points (EGFR_L858R)
CC1=C(C(=O)Nc2cc3cn[nH]c3cc2F)C(c2ccc(C(F)(F)F)cc2)CC(=O)N1 (stereo not given) (10 µM),0,0,0,0,0,0,0,0,0,0,0,0,0,0,0,0,0,0,0,0
NC(=O)c1ccc(N(C(N)=O)c2c(F)cccc2F)nc1-c1ccc(F)cc1F (10 µM),0,0,0,0,0,0,0,0,0,0,0,0,0,0,0,0,0,0,0,0
